A short description of the data set: Chlorite, chlorate and chloride residuals in thin juice samples. The conditions noted are these: 20 ppm chlorine dioxide introduced into the thin juice line.

Turning to `[O][Cl+][O-]` [chlorine dioxide], the chlorate residuals result is recorded as “not detected”, the chloride concentrations result is recorded as “within the same range as baseline” and the chlorite residuals entry is given as “not detected”.

The record behind these values is patent publication US20100143506A1, “APPARATUS AND METHOD FOR TREATMENT OF MICROORGANISMS DURING SUGAR PRODUCTION AND SUGAR-BASED FE[…]” (priority 2008, published 2010).
